IC50 data for one compound are collected here from patent publication US9255100B2 (BAYER INTELLECTUAL PROPERTY GMBH, priority 2010, dated 2016).

By UniProt entry, the sequences of proteins in these tests, tags left out.
UniProt P33981, whole entry: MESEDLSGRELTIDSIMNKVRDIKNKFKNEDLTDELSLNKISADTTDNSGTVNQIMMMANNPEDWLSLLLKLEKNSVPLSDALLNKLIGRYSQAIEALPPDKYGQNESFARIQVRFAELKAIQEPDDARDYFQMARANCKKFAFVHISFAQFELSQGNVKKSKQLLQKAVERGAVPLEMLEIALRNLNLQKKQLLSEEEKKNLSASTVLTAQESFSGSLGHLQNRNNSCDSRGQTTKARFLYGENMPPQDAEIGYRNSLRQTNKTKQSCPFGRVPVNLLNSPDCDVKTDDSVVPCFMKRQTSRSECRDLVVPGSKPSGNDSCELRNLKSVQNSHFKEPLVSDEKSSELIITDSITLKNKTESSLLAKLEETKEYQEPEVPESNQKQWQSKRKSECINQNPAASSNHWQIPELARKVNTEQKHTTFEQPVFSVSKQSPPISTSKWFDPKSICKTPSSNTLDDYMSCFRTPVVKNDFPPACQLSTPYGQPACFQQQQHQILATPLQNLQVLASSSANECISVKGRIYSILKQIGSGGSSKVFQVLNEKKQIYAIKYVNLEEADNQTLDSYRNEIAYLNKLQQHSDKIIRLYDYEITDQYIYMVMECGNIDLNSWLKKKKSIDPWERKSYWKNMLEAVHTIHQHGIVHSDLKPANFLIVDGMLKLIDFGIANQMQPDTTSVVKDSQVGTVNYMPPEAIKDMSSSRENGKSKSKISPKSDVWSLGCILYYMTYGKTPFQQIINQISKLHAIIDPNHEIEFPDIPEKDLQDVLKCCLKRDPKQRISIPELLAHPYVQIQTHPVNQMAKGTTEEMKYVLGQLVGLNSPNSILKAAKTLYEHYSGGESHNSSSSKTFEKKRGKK

Molecules are shown by their SMILES. Structures were worked out from names or drawings and are uncertain.

In the assay the target is N-terminally GST-tagged human full length recombinant Mps-1 kinase (Homo sapiens, UniProt P33981). Briefly: Mps-1 kinase assay (TR-FRET). In kind it is biochemical. Conditions: read-out: Mps1 IC50, 10 μM ATP, 1 μM peptide substrate, 60 min at 22° C. A general note: TR-FRET usually uses a lanthanide donor and a delayed reading to cut background.

On to `COc1ccc(Oc2cc(NCCC(F)(F)F)c3ncc(-c4ccc(C(=O)NC5CC5)c(C)c4)n3n2)c(F)c1`, for which the half-maximal inhibitory concentration (IC50) turned out to be 0.4 nM.

As a reminder, the IC50 is the concentration needed to halve the response being measured.
